From PubChem BioAssay AID248 (DTP/NCI, 2004)
The list shows only some results of the screen, not a fair sample: its compounds were picked by chemical class. Other doses and runs of a compound may be missing. T/C gives the treated animals as a percentage of the vehicle group. Some doses have a count of surviving animals in place of a T/C: the source files T/C as zero there, which appears to mark a toxic dose or a test without result, not a measured value. Some survivor counts are full or nearly so, which does not show that the dose was tolerated: the source hardly ever lists a survival T/C far under the control, and the zero likely stands for such cases as well. Survivors were counted at the toxicity check, usually on the fifth day, unless a day is given; later deaths do not show. Schedules are NCI's codes, taken here to give the interval after Q, in days (D) or hours (H), and the number of doses after X. Some schedules carry Z or #; the key to these is not given. For survival time, the PubChem record calls one and a half times the control and up active, and a quarter to a half above the control has no call in these data; cut-offs in other NCI protocols can differ. Some doses were run more than once; their values stand side by side, smallest first. Some entries show no survivor count and are marked so; the dose need not have been tolerated. Some T/C values carry the count of animals alive at the toxicity check (mostly the fifth day); without a count or a note in brackets, all were alive then.

Test system: L1210 leukemia ip in BDF1 mice, survival T/C
Test: NCI In Vivo Anticancer Drug Screen. Data for tumor model L1210 Leukemia (intraperitoneal) in B6D2F1 (BDF1) mice
Details: T/C endpoint: mean survival time, higher T/C = longer survival
[1] = dose: 50.0 mg/kg/injection, schedule: Q01DX001 (ip), vehicle: saline
[2] = dose: 100.0 mg/kg/injection, schedule: Q01DX001 (ip), vehicle: saline
[3] = dose: 200.0 mg/kg/injection, schedule: Q01DX001 (ip), vehicle: saline
[4] = dose: 400.0 mg/kg/injection, schedule: Q01DX001 (ip), vehicle: saline
[5] = dose: 75.0 mg/kg/injection, schedule: Q01DX009 (ip), vehicle: Klucel (hydroxypropylcellulose) (HPC)
[6] = dose: 100.0 mg/kg/injection, schedule: Q04DX003 (ip), vehicle: Klucel (hydroxypropylcellulose) (HPC)
[7] = dose: 200.0 mg/kg/injection, schedule: Q04DX003 (ip), vehicle: Klucel (hydroxypropylcellulose) (HPC)
[8] = dose: 400.0 mg/kg/injection, schedule: Q04DX003 (ip), vehicle: Klucel (hydroxypropylcellulose) (HPC)

NP(=O)(OCCCl)N(CCCl)CCCl (stereo unspecified)
T/C (dose: 62.5 mg/kg/injection, schedule: Q01DX Z (ip), vehicle: saline): 110 % of control | T/C (dose: 125.0 mg/kg/injection, schedule: Q01DX Z (ip), vehicle: saline): 110 % of control | T/C (dose: 250.0 mg/kg/injection, schedule: Q01DX Z (ip), vehicle: saline): 109 and 113 % of control | survivor count (dose: 500.0 mg/kg/injection, schedule: Q01DX Z (ip), vehicle: saline): 6 of 6 | survivor count (dose: 750.0 mg/kg/injection, schedule: Q01DX Z (ip), vehicle: saline): 0 of 6

COc1cc(CNCCCl)cc(OC)c1OC
T/C [1]: 119 % of control | T/C [2]: 107 % of control | T/C [3]: 104 % of control | T/C [4]: 104 % of control

O=P(NC(=S)NC12CC3CC(CC(C3)C1)C2)(Oc1ccccc1)Oc1ccccc1
T/C (dose: 25.0 mg/kg/injection, schedule: Q01DX009 (ip), vehicle: Klucel (hydroxypropylcellulose) (HPC)): 94 % of control | T/C (dose: 50.0 mg/kg/injection, schedule: Q01DX009 (ip), vehicle: Klucel (hydroxypropylcellulose) (HPC)): 92 % of control | T/C [5]: 97 % of control | survivor count [5]: 3 of 6 | T/C (dose: 150.0 mg/kg/injection, schedule: Q01DX009 (ip), vehicle: Klucel (hydroxypropylcellulose) (HPC)): 89 % of control [5 of 6 alive] | survivor count (dose: 300.0 mg/kg/injection, schedule: Q01DX009 (ip), vehicle: Klucel (hydroxypropylcellulose) (HPC)): 3 of 6

CCCCCCCCCCOP(=O)(Cl)CC (stereo unspecified)
T/C (dose: 75.0 mg/kg/injection, schedule: Q01DX001 (ip), vehicle: saline): 89 % of control [survivor count not shown]

COC(=O)CC[N+]1(C)CC1
T/C (dose: 100.0 mg/kg/injection, schedule: Q01DX009 (ip), vehicle: Klucel (hydroxypropylcellulose) (HPC)): 93 % of control | T/C [6]: 109 % of control | T/C (dose: 200.0 mg/kg/injection, schedule: Q01DX009 (ip), vehicle: Klucel (hydroxypropylcellulose) (HPC)): 90 % of control | T/C [7]: 94 % of control | T/C (dose: 400.0 mg/kg/injection, schedule: Q01DX009 (ip), vehicle: Klucel (hydroxypropylcellulose) (HPC)): 97 % of control [4 of 6 alive] | T/C [8]: 113 % of control

N#CCCN(CN(CN(CCC#N)[N+](=O)[O-])CN(CCC#N)[N+](=O)[O-])[N+](=O)[O-]
T/C (dose: 100.0 mg/kg/injection, schedule: Q01DX001 (ip), vehicle: carboxymethylcellulose (CMC)): 93 % of control [survivor count not shown] | T/C [6]: 102 % of control [survivor count not shown] | T/C (dose: 200.0 mg/kg/injection, schedule: Q01DX001 (ip), vehicle: carboxymethylcellulose (CMC)): 102 % of control [survivor count not shown] | T/C [7]: 105 % of control [survivor count not shown] | T/C (dose: 400.0 mg/kg/injection, schedule: Q01DX001 (ip), vehicle: carboxymethylcellulose (CMC)): 100 % of control [survivor count not shown] | T/C [8]: 103 % of control [survivor count not shown]

COc1ccc(P(=S)(Cl)Cl)cc1
T/C [6]: 89 % of control [5 of 6 alive] | T/C [7]: 93 % of control [5 of 6 alive] | T/C [8]: 93 % of control

C[CH2][Pb]([C]#N)([CH2]C)[CH2]C
T/C (dose: 12.5 mg/kg/injection, schedule: Q04DX002 (ip), vehicle: saline with Tween-80): 97 % of control | T/C (dose: 25.0 mg/kg/injection, schedule: Q04DX002 (ip), vehicle: saline with Tween-80): 93 % of control | T/C (dose: 50.0 mg/kg/injection, schedule: Q04DX002 (ip), vehicle: saline with Tween-80): 101 % of control | survivor count (dose: 100.0 mg/kg/injection, schedule: Q04DX002 (ip), vehicle: saline with Tween-80): 0 of 3 | survivor count (dose: 200.0 mg/kg/injection, schedule: Q04DX002 (ip), vehicle: saline with Tween-80): 0 of 3 | survivor count (dose: 400.0 mg/kg/injection, schedule: Q04DX002 (ip), vehicle: saline with Tween-80): 0 of 3

Cc1c2ccccc2cc2c1ccc1cccc(F)c12.O=C1c2cc([N+](=O)[O-])ccc2-c2c1cc([N+](=O)[O-])cc2[N+](=O)[O-]
T/C (dose: 50.0 mg/kg/injection, schedule: Q01DX001 (ip), vehicle: Klucel (hydroxypropylcellulose) (HPC)): 106 % of control [survivor count not shown] | T/C (dose: 100.0 mg/kg/injection, schedule: Q01DX001 (ip), vehicle: Klucel (hydroxypropylcellulose) (HPC)): 112 % of control [survivor count not shown] | T/C (dose: 200.0 mg/kg/injection, schedule: Q01DX001 (ip), vehicle: Klucel (hydroxypropylcellulose) (HPC)): 106 % of control [survivor count not shown]

CC(C)OP(C)(=O)OCC(Cl)(Cl)Cl (stereo unspecified)
T/C (dose: 100.0 mg/kg/injection, schedule: Q04DX002 (ip), vehicle: Klucel (hydroxypropylcellulose) (HPC)): 115 % of control [survivor count not shown] | T/C (dose: 200.0 mg/kg/injection, schedule: Q04DX002 (ip), vehicle: Klucel (hydroxypropylcellulose) (HPC)): 112 % of control [survivor count not shown] | T/C (dose: 400.0 mg/kg/injection, schedule: Q04DX002 (ip), vehicle: Klucel (hydroxypropylcellulose) (HPC)): 108 % of control [survivor count not shown]

NP(N)(=O)N(CCCl)CCCl
T/C (dose: 10.0 mg/kg/injection, schedule: Q01DX Z (ip), vehicle: saline): 90 % of control | T/C (dose: 30.0 mg/kg/injection, schedule: Q01DX Z (ip), vehicle: saline): 96 % of control | T/C (dose: 100.0 mg/kg/injection, schedule: Q01DX Z (ip), vehicle: saline): 104 % of control | T/C (dose: 300.0 mg/kg/injection, schedule: Q01DX Z (ip), vehicle: saline): 101 % of control | survivor count (dose: 1000.0 mg/kg/injection, schedule: Q01DX Z (ip), vehicle: saline): 4 of 6 | T/C (dose: 2000.0 mg/kg/injection, schedule: Q01DX Z (ip), vehicle: saline): 96 % of control

CC(=O)OC(SC(OC(C)=O)C(Cl)(Cl)Cl)C(Cl)(Cl)Cl (stereo unspecified)
T/C (dose: 100.0 mg/kg/injection, schedule: Q01DX009 (ip), vehicle: gum acacia): 102 % of control | T/C (dose: 100.0 mg/kg/injection, schedule: Q04DX003 (ip), vehicle: gum acacia): 101 % of control | T/C (dose: 200.0 mg/kg/injection, schedule: Q01DX009 (ip), vehicle: gum acacia): 91 % of control | T/C (dose: 200.0 mg/kg/injection, schedule: Q04DX003 (ip), vehicle: gum acacia): 94 % of control | T/C (dose: 400.0 mg/kg/injection, schedule: Q01DX009 (ip), vehicle: gum acacia): 89 % of control [4 of 6 alive] | T/C (dose: 400.0 mg/kg/injection, schedule: Q04DX003 (ip), vehicle: gum acacia): 92 % of control

NP(=O)(N1CC1)N(CCCl)CC(Cl)CCCCl (stereo unspecified)
T/C (dose: 6.0 mg/kg/injection, schedule: Q01DX015 (ip), vehicle: saline): 103 % of control | T/C (dose: 9.0 mg/kg/injection, schedule: Q01DX015 (ip), vehicle: saline): 103 % of control | T/C (dose: 13.0 mg/kg/injection, schedule: Q01DX015 (ip), vehicle: saline): 122 % of control | T/C (dose: 19.0 mg/kg/injection, schedule: Q01DX015 (ip), vehicle: saline): 129 [4 of 6 alive] and 144 % of control | T/C (dose: 32.0 mg/kg/injection, schedule: Q01DX015 (ip), vehicle: saline): 185 % of control | T/C [1]: 96 % of control | T/C (dose: 53.0 mg/kg/injection, schedule: Q01DX015 (ip), vehicle: saline): 150 % of control | T/C (dose: 89.0 mg/kg/injection, schedule: Q01DX001 (ip), vehicle: saline): 143 % of control | T/C (dose: 89.0 mg/kg/injection, schedule: Q01DX015 (ip), vehicle: saline): 90 % of control | T/C [2]: 109 % of control | T/C (dose: 133.0 mg/kg/injection, schedule: Q01DX001 (ip), vehicle: saline): 105 % of control [5 of 6 alive] | T/C [3]: 107 [5 of 6 alive] and 156 % of control | survivor count (dose: 300.0 mg/kg/injection, schedule: Q01DX001 (ip), vehicle: saline): 2 of 6 | survivor count [4]: 2 of 4

CCN(CCCl)C1C(O)C(O)OC(CO)C1O (stereo unspecified)
T/C (dose: 18.0 mg/kg/injection, schedule: Q01DX Z (ip), vehicle: saline): 125 % of control | T/C (dose: 27.0 mg/kg/injection, schedule: Q01DX Z (ip), vehicle: saline): 121 % of control
